According to patent US20160090422A1 (Genentech, published 2016):
Positions count from the first letter of the chain named. These are yes or no findings as the source states them, for the method shown. Some entries that bind do so weakly or less than the wild type.

Experiments:
human CRTh2 [1] = target: T1, human CRTh2 (human, UniProt Q9Y5Y4 1-395); experiment: flow cytometry on 293 cells overexpressing human CRTh2
T1 construct: also native CRTh2 on primary human basophils, eosinophils and Th2 cells; also called hCRTh2; chemoattractant receptor-homologous molecule expressed on T helper 2 cells
T1 sequence: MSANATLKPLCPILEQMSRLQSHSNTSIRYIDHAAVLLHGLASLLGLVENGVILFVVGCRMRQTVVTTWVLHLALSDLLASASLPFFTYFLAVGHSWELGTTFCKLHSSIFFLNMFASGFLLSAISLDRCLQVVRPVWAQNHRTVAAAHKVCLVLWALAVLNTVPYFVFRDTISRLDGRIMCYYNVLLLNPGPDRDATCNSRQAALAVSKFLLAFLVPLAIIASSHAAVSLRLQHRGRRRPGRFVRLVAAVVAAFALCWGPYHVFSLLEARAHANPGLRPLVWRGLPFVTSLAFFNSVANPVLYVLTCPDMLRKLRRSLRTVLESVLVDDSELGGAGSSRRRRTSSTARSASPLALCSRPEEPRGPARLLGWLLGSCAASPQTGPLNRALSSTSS

human CRTh2 [2] = target: T1, human CRTh2; experiment: flow cytometry on primary human basophils and eosinophils
human CRTh2 [3] = target: T1, human CRTh2; experiment: flow cytometry, 293 cells expressing human CRTh2; hybridoma antibody at 20, 2 and 0.2 ug/ml [Cont.]
human CRTh2 [4] = target: T1, human CRTh2; experiment: flow cytometry on basophils and eosinophils of human PBMC; antibody at 5 and 0.5 ug/ml, labelled anti-mouse IgG [Cont.]
[5] = target: T2, rhesus monkey CRTh2 (rhesus monkey); experiment: flow cytometry, 293 cells expressing rhesus CRTh2
T2 sequence: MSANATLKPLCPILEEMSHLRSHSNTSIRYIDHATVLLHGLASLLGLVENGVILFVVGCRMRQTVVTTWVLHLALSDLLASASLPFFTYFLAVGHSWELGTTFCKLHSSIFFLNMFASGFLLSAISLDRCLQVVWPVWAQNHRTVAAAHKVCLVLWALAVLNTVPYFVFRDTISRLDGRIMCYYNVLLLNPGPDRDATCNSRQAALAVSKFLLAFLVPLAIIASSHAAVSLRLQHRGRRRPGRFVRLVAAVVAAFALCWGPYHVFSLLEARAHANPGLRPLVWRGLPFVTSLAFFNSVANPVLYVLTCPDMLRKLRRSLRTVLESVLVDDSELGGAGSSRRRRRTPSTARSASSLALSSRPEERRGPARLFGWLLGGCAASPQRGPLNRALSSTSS

[6] = target: T2, rhesus monkey CRTh2 (rhesus monkey); experiment: flow cytometry, 300.19 cells expressing amino-terminal Flag-tagged rhesus CRTh2; antibody at 5 and 0.5 ug/ml
[7] = target: T2, rhesus monkey CRTh2 (rhesus monkey); experiment: condition: 20 ug/ml (highest concentration, FIG. 3A legend); flow cytometry on 293 or 300.19 cells overexpressing rhesus CRTh2
[8] = target: T3, cynomolgus monkey CRTh2 (cynomolgus monkey); experiment: flow cytometry, 293 cells expressing cynomolgus CRTh2 [Cont.]
T3 sequence: T2 sequence with P193S, P276R, R360H

[9] = target: T3, cynomolgus monkey CRTh2 (cynomolgus monkey); experiment: flow cytometry, 300.19 cells expressing amino-terminal Flag-tagged cynomolgus CRTh2 [Cont.]
[10] = target: T3, cynomolgus monkey CRTh2 (cynomolgus monkey); experiment: condition: 20 ug/ml (highest concentration, FIG. 3A legend); flow cytometry on 293 or 300.19 cells overexpressing cyno CRTh2
[11] = target: T2, rhesus monkey CRTh2 (rhesus monkey); experiment: condition: 0.55 ug/ml (highest concentration, FIG. 15B legend); flow cytometry on 293 cells expressing rhesus CRTh2
[12] = target: T2, rhesus monkey CRTh2 (rhesus monkey); experiment: flow cytometry, 293 cells expressing rhesus CRTh2; antibody at 0.55, 0.18, 0.06, 0.02 and 0.006 ug/ml [Cont.]
[13] = target: T2, rhesus monkey CRTh2 (rhesus monkey); experiment: condition: 10 ug/ml (highest concentration, FIG. 3D-F legend); flow cytometry on 293 / 300.19 cells overexpressing rhesus CRTh2 and on primary rhesus basophils

B1: murine anti-CRTh2 antibody 31A5 (antibody, mouse IgG2a, V domains shown)
VH: QVQLKESGPGLVAPSQSLSITCTVSGFSLTGYGVNWVRQPPGKGLEWLGMIWDDGTTDFDSALRSRLSISKDNSKSQVFLKMNSLQTDDTARYFCARGDYGYAMDYWGQGTSVTVSS
VL: DIQMTQSPASLSVSVGETVTITCRASVNIYSNLAWYQQRQGKSPQLLVYAATNLAEGVPSRFSGSGSGTQYSLKINSLQSEDFGSYYCQHFWVTPYTFGGGTKLEIK
notes: Mouse monoclonal (hybridoma antibody; heavy chain also recloned with mouse IgG2a Fc); also called mu31A5
- binding (human CRTh2 [1]): binds
- binding (human CRTh2 [2]): binds
- binding (human CRTh2 [3]): binds
- binding (human CRTh2 [4]): binds

B2: murine anti-CRTh2 antibody 19A2 (antibody, V domains shown)
VH: EVKLVESGGGLVQPGGSLKLSCAASGFTFSSYSMSWVRQTPEKRLEWVAYISNGGSTTYYPGTVEGRFTISRDNAKNTLFLQMSSLRSKDTAMYYCARHRTNWDFDYWGQGTTLTVSS
VL: B1 VL with V27E, R39K, L47V, N53Q, E56D, V93I, Y96W
notes: whole IgG in the Scatchard assay; also called mu19A2; Mab 19A2
- binding [5]: no binding (tested: 20 ug/ml)
- binding [6]: no binding (tested: 5 ug/ml)
- binding [7]: no binding

B3: murine anti-CRTh2 antibody 8B1 (antibody, V domains shown)
VH: QVQLQQSGTGLVRPGTSVRVSCKASGYAFITYLIEWIKQRPGQGLEWIGVIHPGSGNSHYNEKFKGKATLTADTSSSTAYMQLSSLTSGDSAVYFCARSGSSSFDYYAMDFWGQGTSVTVSS
VL: DIQMTQSPSSLSASLGERVSLTCRASQEISGYFSWLQQKPDGTIKRLIYAASTLDSGVPKRFSGSRSGSDYSLTISSLESEDFADYYCLQYANYPYTFGGGTKLEIK
notes: Mouse monoclonal, hybridoma antibody or recloned with mouse IgG2a Fc; whole IgG in the Scatchard assay; also called mu8B1; Mab 8B1
- binding [5]: no binding (tested: 20 ug/ml)
- binding [8]: no binding (tested: 20 ug/ml)
- binding [9]: no binding (tested: 1 ug/ml)
- binding [6]: no binding (tested: 5 ug/ml)
- binding [10]: no binding
- binding [7]: no binding

B4: humanized anti-CRTh2 antibody hu19A2.v1 (antibody, human IgG1, kappa, V domains shown)
VH: EVQLVESGGGLVQPGGSLRLSCAASGFTFSSYSMSWVRQAPGKGLEWVAYISNGGSTTYYPGTVEGRFTISRDNSKNTLYLQMNSLRAEDTAVYYCARHRTNWDFDYWGQGTLVTVSS
VL: DIQMTQSPSSLSASVGDRVTITCRASENIYSNLAWYQQKPGKAPKLVVYAATQLADGVPSRFSGSGSGTDYTLTISSLQPEDFATYYCQHFWITPWTFGQGTKVEIKR
notes: also called h19A2.v1
- binding [11]: no binding
- binding [12]: no binding (tested: 0.55 ug/ml)
- binding [13]: no binding
